# Results as given in US8778890B2, “Leptin antagonist and methods of use” (Temple University—of the Commonwealth System of Higher …, priority 2009, dated 2014).
# Not every detail of the peptide structures is certain; ends, links or a residue may be inferred. Where a SMILES comes first, the peptide text is derived from it. [ ]: non-standard residue; d: D form. aThr = C[C@H](O)[C@H](N)C(=O)O; Nva = CCC[C@H](N)C(=O)O; Ahx = NCCCCCC(=O)O
# What was measured:
# [1] = target: T1, human IgG Fc-conjugated ObR extracellular domain (Homo sapiens, UniProt P48357); assay: dot-blot ObR binding assay; conditions: FIG. 1
# T1 construct: human IgG Fc-conjugated ObR extracellular domain (R&D Systems, Minneapolis, Minn.); purchased R&D Systems, Minneapolis, Minn
# T1 sequence (P48357 22-839 limits assumed): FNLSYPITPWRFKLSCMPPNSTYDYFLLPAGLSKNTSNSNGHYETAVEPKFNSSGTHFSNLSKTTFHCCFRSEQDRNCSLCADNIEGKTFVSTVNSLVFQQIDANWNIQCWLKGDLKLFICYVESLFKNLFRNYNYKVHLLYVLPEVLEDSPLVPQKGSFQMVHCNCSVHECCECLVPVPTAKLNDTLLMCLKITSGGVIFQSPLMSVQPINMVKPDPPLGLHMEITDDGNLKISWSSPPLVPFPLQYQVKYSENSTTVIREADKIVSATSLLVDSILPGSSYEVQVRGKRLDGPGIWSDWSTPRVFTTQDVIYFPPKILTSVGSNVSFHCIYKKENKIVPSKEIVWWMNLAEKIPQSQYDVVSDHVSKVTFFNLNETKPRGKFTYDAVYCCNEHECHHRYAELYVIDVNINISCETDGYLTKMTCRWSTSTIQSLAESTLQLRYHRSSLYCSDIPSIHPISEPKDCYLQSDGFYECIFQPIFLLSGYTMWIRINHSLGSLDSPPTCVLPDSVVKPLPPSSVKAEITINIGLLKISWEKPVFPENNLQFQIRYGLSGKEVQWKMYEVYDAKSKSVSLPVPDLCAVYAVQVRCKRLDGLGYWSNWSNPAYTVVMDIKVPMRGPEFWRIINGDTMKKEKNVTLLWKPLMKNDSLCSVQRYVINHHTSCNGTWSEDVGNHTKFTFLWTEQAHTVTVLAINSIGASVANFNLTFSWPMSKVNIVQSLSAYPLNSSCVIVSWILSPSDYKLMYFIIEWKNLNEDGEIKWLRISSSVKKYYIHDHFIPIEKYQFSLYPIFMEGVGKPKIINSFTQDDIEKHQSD
# [2] = tested on: MCF-7 breast cancer cells (ObR-positive); format: cell-based, human
# Text: (§1) Immunol. Methods 94:57-63).
# [3] = tested on: LN229 (glioma) cells (ObR-positive); format: cell-based
# Text: as §1
# [4] = tested on: ObR-positive cancer cells (brain and breast); format: cell-based
# Experimental: The effect of the peptides of the invention on the proliferation of ObR-positive cancer cells (brain and breast) in the presence (IC50) or absence (EC50) of exogenous leptin protein (6 nM) is summarized in Table 1.
# [5] = tested on: STAT3 phosphorylation on Tyr705; assay: leptin-induced STAT3 phosphorylation, Western blotting; format: cell-based; conditions: leptin 6 nM; LN18 and LN228 glioblastoma cells
# [6] = weight gain of growing mice; format: in vivo; conditions: for net body weight gain: C57BL/6 mice, 8 days
# Experimental: Six weeks old Black/6 mice (mixed race) and F344 female rats were grown on regular lab chow and had access to food and water ad libidum. Treatment started at day 0, with four mice (2 males and 2 females) and 4 rats per group. The animals received the peptide of amino acid sequence SEQ ID NO:4 or physiological salt solution once daily. The mice and rats were dosed according to the following schedule: • Group 1: Mice, salt solution intraperitoneally; • Groups 2 and 3: Mice 0.1 mg/kg/day or 0.01 mg/kg/day peptide of amino acid sequence SEQ ID NO:4 intraperitoneally in 100 microliter salt solution; • Groups 4 and 5: Mice 1 mg/kg/day or 0.1 mg/kg/day peptide of amino acid sequence SEQ ID NO:4 subcutaneously (under the shoulder blade) in 100 microliter salt solution; • Groups 6 and 7: Mice 10 mg/kg/day or 1 mg/kg/day peptide of amino acid sequence SEQ ID NO:4 orally in 100 microliter salt solution; • Group 8: Rats, 10 microliter salt solution, intranasally; • Group 9: Rats. 0.1 mg/kg/day peptide of amino acid sequence SEQ ID NO:4 intranasally in 10 microliter salt solution.
# The peptide of amino acid sequence SEQ ID NO:4 was tested for its ability to cause weight gain in animals. BL/6 mice were treated with the peptide with daily administrations of 0.1 mg/kg/day ip, 0.1 mg/kg/day subcutaneous (sc) or 1 mg/kg/day oral (po). FIG. 5 records weight increase observed for the mice upon treatment.
# The fitted growth curve of the control peptide-treated mice closely followed the 1.3 g expected weight increase of 6.5-weeks old mice fed with 6% fat laboratory diet (FIG. 7A).
# The therapeutic utility of full ObR antagonists was studied further by the ability of peptide of amino acid sequence SEQ ID NO:4 to increase the appetite of normal, growing mice as measured by accelerated weight gain and increased food intake upon various modes of peptide administration. Studies were run on 7-week old normal C57BL/6 mice. […] An optimal treatment time appeared to be 8 days, when the net body weight gains amounted to 2.6%, 2% and 1%, respectively. The increase in food intake was correlated with the additional weight gain only in week 2, when the treatment was most efficacious and only in the intraperitoneally treated group (+14%). […] In control experiments, 0.1 mg/kg/day leptin added intraperitoneally, as expected, reduced normal weight gain (compared to untreated mice) by 5% at day 8. This effect was completely reversed with concomitant addition of 0.1 mg/kg/day peptide of amino acid sequence SEQ ID NO:4, the mice gaining 40% more weight than controls. […] In addition, in a retrospective analysis of the body weights of the toxicity study, the highest level of weight gain could be documented at the lowest doses above 0.5 mg/kg bolus or 2 mg/kg/day. This situation is similar to clinical applications of leptin where emerging resistance to treatment is frequently observed.
# [7] = weight gain of rats after intranasal administration; format: in vivo
# [8] = tested on: ObR-positive cancer cells (brain and breast); format: cell-based; conditions: presence of exogenous leptin (6 nM)
# [9] = target: T1, human IgG Fc-conjugated ObR extracellular domain; assay: medium-throughput solid-phase (ELISA) binding assay
# [10] = tested on: MCF-7 human breast cancer xenograft; assay: MCF-7 human breast cancer xenograft growth; format: in vivo, nu/nu Swiss nude mice
# [11] = male F334 rats, intranasal 0.1 mg/kg/day, 3-week period
smiles,measurement,setting,value
"CCC[C@H](NC(=O)[C@H](CCC(=O)O)NC(=O)[C@@H](N)[C@@H](C)O)C(=O)N[C@H](C(=O)N[C@@H](C)C(=O)N[C@@H](CC(C)C)C(=O)N[C@@H](CO)C(=O)N[C@@H](CCCNC(=N)N)C(=O)NCCCCCC(N)=O)C(C)C [SEQ ID NO:4, Thr-Glu-Nva-Val-Ala-Leu-Ser-Arg-AcpNH2] (H-TE[Nva]VALSR[Ahx]-NH2)",binding to the ObR receptor on solid phase,[1],bound to the ObR receptor on solid phase in a clearly visible manner
same,concentration of full inhibition,"[2]; MCF-7, FIG. 2",50 nM
same,concentration of full inhibition,[3],50 nM
same,pharmacology,[4],full antagonist;
same,concentration from which leptin-induced STAT3 phosphorylation is completely inhibited,[5],1 to 5 nM
same,more weight gained than controls,[6]; 0.1 mg/kg/day peptide with concomitant 0.1 mg/kg/day leptin ip,40%
same,additional weight gained versus controls,"[6]; 0.4 mg/kg/day ip, 11 days",0.6 to 0.7 g
same,additional weight gain,"[6]; 0.4 mg/kg/day ip, by day 11, relative to control peptide",45%
same,net total body weight (tbw) increase,"[6]; 0.4 mg/kg/day ip, day 11, relative to control peptide",2%
same,weight gain compared to untreated control,"[6]; BL/6 mice, 0.1 mg/kg/day ip, 0.1 mg/kg/day sc or 1 mg/kg/day po, first 10 days, FIG. 5",increase in weight gain
same,net body weight gain,[6]; intraperitoneal 0.1 mg/kg/day,2.6%
same,net body weight gain,[6]; oral,1%
same,net body weight gain,[6]; subcutaneous,2%
same,increase in food intake,"[6]; intraperitoneally treated group, week 2",14%
same,day at which beneficial effects of all administration modes ended,"[6]; ip, sc, oral",14 days
same,effect of increased dosing on body weight increases,"[6]; subcutaneous 1 mg/kg/day, oral 10 mg/kg/day",contra-indicated
same,"weight gain, total","[7]; after 10 days of treatment, 0.1 mg/kg daily, species and route not given",2%
same,day of maximal weight gain increase,[7]; intranasal 0.1 mg/kg/day,19 days
same,resistance to treatment on extended dosing,[7]; intranasal 0.1 mg/kg/day,did not induce any appreciable resistance
same,efficacy in a rat model of weight gain,[7]; intranasal administration,showed efficacy
same,average additional weight gained relative to untreated counterparts,[7]; [11],3.5 g
same,net total body weight gain,[7]; [11],2%
same,IC100,[8],50 nM
CCC[C@H](NC(=O)[C@H](CCC(=O)O)NC(=O)[C@@H](NC(C)=O)[C@@H](C)O)C(=O)N[C@H](C(=O)N[C@@H](C)C(=O)N[C@@H](CC(C)C)C(=O)N[C@@H](CO)C(=O)N[C@@H](CCCNC(=N)N)C(=O)NCCCCCC(N)=O)C(C)C [SEQ ID NO:9] (Ac-TE[Nva]VALSR[Ahx]-NH2),pharmacological profile,[4],partial agonist
"CCC[C@H](NC(=O)[C@H](CCCNC(=N)N)NC(=O)[C@H](CO)NC(=O)[C@H](CC(C)C)NC(=O)[C@H](C)NC(=O)[C@H](CCC)NC(=O)[C@H](CCC)NC(=O)[C@H](CCC(=O)O)NC(=O)[C@@H](N)[C@@H](C)O)C(N)=O [SEQ ID NO:47, Thr-Glu-Nva-Nva-Ala-Leu-Ser-Arg-NvaNH2] (H-TE[Nva][Nva]ALSR[Nva]-NH2)",binding to the extracellular domain of ObR,[9],bound
same,agonistic activity,[2],no agonistic activity
same,interference with leptin-induced proliferation,[2]; MCF-7 cells,concentration-dependent manner
same,ObR antagonism,[2]; at 1 μM,full antagonist
same,pharmacology,[4],weak antagonist
"CCC[C@H](NC(=O)[C@H](CCC(=O)O)NC(=O)[C@@H](N)[C@H](C)O)C(=O)N[C@H](C(=O)N[C@@H](C)C(=O)N[C@@H](CC(C)C)C(=O)N[C@@H](CO)C(=O)N[C@@H](CCCNC(=N)N)C(=O)NCCCCCC(N)=O)C(C)C [SEQ ID NO:49, alloThr-Glu-Nva-Val-Ala-Leu-Ser-Arg-AcpNH2] (H-[aThr]E[Nva]VALSR[Ahx]-NH2)",pharmacology,[4],super antagonist
same,average tumor volume relative to untreated control mice,"[10]; 0.1 mg/kg daily intraperitoneal, 5.5 weeks",55%
same,tumor volume relative to untreated control mice,[10]; 0.1 mg/kg daily subcutaneously between the two lesions,49%
same,reduction of tumor volume and weight,[10]; intraperitoneal treatment,dose-dependent manner
same,IC100,[8],5 nM
